The list shows a part of the results.
Legend:
Assay in all cases: log2 fold change, soluble protein after heating vs DMSO (PISA); higher = thermal stabilisation; K562 lysate, 10 uM; active = over 0.2 and 3.5 SD of the protein, either way, in both replicates (recomputed)
lapatinib = compound: CS(=O)(=O)CCNCc1ccc(-c2ccc3ncnc(Nc4ccc(OCc5cccc(F)c5)c(Cl)c4)c3c2)o1 [lapatinib]
Method in brief: (§1)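 A 30 min treatment with 10 μM compound was applied to crude K562 extract at 1 mg/mL protein in PBS pH 7.4 with 1 mM MgCl2. Heating for 3 min spanned 48°C-58°C, after which aliquots were pooled, adjusted to 0.5% NP-40 at 4°C and spun at 21,000xg for 90 min. TMTpro 16plex LC-MS/MS of the supernatant, with channel sums equalised, gave values recorded as log-two fold change in thermal stability against solvent controls, from duplicates.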

The chains behind the UniProt entries cited, without tags or fusion partners. Where a name states a change or a piece, a line headed by the entry shows the natural chain unless it says otherwise.
UniProt O00268, whole entry, looked up: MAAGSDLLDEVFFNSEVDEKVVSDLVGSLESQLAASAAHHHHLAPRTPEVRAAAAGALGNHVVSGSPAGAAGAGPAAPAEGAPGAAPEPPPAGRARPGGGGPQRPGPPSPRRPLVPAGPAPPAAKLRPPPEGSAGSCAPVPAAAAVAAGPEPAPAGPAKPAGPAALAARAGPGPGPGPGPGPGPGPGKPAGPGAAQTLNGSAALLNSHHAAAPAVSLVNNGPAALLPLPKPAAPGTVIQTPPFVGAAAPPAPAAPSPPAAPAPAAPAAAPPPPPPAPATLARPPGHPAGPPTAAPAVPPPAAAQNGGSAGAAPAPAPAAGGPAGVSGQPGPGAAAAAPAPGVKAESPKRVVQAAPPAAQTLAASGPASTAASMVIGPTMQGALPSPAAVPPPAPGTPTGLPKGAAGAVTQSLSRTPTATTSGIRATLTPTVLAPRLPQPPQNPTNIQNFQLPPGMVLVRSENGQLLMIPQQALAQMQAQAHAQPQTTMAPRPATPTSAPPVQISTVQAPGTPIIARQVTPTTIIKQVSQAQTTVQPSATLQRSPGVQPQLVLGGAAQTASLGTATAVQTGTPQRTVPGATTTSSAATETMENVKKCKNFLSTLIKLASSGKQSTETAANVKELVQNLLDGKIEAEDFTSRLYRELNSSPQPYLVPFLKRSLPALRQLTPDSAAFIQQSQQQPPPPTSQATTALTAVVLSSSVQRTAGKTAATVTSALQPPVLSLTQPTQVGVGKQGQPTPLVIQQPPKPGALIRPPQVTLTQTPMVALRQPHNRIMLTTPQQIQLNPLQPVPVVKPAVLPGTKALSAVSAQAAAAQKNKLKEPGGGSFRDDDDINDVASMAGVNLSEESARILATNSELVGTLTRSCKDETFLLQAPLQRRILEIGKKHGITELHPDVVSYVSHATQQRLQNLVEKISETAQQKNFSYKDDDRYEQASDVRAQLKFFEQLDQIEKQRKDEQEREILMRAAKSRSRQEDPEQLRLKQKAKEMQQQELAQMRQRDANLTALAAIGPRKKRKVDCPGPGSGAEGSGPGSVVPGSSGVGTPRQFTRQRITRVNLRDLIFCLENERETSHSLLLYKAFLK
UniProt Q8NEM7: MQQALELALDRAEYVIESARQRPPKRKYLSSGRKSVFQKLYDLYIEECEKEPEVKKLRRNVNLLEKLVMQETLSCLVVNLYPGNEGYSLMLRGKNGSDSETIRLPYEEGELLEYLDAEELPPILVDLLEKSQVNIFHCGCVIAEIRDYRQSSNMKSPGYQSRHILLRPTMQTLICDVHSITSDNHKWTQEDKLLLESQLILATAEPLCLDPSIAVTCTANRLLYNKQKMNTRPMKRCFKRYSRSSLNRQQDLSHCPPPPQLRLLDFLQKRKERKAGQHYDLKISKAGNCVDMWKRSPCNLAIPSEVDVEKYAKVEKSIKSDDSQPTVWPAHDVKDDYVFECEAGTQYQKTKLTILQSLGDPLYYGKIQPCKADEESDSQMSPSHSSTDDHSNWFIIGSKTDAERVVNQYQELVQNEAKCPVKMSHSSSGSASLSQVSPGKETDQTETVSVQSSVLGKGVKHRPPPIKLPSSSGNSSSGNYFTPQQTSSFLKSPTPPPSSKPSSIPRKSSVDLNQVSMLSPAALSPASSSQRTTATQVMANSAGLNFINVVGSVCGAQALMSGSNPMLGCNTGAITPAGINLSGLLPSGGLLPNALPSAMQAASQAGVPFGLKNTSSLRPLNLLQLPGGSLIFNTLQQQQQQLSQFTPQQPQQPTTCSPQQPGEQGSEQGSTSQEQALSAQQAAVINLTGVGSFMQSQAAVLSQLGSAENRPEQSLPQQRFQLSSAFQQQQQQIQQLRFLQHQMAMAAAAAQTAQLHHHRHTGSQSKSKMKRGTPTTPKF
UniProt Q9H7L9: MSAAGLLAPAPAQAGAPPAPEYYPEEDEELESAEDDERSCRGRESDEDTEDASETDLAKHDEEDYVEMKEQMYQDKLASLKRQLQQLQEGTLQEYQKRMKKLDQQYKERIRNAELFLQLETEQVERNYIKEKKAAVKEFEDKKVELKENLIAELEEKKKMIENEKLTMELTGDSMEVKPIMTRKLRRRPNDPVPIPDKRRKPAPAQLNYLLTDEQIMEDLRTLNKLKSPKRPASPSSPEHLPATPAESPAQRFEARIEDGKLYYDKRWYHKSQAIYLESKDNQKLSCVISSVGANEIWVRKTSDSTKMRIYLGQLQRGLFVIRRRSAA
UniProt Q92804: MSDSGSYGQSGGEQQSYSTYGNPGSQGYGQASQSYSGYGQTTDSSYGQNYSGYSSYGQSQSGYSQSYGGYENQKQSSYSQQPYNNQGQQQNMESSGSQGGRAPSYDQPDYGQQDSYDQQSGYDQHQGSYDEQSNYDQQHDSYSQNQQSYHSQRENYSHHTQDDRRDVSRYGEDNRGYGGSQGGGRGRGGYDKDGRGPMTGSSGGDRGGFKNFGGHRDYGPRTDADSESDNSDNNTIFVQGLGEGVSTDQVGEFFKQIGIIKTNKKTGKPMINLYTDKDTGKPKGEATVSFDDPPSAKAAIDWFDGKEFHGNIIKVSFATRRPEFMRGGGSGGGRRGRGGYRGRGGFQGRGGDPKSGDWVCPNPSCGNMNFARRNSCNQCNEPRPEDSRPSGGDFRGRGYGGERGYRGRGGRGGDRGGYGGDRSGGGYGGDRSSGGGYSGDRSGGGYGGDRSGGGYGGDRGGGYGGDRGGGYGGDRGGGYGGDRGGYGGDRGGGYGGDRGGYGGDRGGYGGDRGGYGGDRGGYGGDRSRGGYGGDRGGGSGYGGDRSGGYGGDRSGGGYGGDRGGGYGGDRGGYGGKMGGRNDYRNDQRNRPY
UniProt Q9H668: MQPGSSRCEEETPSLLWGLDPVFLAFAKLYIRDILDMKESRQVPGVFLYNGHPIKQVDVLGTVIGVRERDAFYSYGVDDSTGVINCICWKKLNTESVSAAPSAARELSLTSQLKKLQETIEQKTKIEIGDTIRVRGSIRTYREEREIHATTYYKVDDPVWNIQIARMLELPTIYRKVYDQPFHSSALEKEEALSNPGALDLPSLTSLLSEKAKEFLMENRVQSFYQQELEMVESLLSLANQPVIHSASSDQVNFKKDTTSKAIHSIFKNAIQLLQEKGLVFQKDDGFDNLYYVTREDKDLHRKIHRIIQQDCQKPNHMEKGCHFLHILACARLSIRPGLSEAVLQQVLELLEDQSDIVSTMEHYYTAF
UniProt P57105: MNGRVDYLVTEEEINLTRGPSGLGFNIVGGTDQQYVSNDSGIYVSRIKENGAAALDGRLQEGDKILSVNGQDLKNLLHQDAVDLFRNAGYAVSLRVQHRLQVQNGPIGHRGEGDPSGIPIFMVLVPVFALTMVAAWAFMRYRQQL
UniProt Q92797: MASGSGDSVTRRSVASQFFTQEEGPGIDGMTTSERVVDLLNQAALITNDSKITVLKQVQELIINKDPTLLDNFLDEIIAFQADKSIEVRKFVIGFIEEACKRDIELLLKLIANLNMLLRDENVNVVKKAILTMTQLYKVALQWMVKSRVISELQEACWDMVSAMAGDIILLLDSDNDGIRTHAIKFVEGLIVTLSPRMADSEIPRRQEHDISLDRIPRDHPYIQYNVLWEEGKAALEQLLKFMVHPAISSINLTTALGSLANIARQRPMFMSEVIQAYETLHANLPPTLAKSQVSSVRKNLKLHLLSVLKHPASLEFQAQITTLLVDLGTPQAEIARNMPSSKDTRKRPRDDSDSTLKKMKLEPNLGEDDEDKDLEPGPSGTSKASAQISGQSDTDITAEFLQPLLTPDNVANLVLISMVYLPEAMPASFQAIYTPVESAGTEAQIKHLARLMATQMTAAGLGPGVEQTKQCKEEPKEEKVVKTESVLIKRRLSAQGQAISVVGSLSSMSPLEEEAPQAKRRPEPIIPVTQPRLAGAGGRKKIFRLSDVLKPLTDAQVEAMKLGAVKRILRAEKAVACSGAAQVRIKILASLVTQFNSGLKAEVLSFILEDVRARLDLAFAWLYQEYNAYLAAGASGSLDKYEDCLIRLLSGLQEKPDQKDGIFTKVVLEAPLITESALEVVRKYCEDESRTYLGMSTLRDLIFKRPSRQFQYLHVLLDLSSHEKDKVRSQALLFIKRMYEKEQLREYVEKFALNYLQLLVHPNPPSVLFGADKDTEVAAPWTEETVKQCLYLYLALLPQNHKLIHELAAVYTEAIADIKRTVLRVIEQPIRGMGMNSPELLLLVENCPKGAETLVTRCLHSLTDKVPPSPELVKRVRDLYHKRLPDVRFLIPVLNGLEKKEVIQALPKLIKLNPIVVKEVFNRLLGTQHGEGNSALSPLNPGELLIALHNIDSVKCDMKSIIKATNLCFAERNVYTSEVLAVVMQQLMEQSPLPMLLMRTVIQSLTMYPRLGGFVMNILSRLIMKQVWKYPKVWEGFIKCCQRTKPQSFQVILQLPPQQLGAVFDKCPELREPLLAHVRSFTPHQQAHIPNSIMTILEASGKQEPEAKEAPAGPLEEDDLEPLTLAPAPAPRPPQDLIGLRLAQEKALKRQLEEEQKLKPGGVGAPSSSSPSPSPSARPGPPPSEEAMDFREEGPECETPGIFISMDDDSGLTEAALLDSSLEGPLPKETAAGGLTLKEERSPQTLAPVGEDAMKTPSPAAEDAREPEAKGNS
UniProt Q9HCH5: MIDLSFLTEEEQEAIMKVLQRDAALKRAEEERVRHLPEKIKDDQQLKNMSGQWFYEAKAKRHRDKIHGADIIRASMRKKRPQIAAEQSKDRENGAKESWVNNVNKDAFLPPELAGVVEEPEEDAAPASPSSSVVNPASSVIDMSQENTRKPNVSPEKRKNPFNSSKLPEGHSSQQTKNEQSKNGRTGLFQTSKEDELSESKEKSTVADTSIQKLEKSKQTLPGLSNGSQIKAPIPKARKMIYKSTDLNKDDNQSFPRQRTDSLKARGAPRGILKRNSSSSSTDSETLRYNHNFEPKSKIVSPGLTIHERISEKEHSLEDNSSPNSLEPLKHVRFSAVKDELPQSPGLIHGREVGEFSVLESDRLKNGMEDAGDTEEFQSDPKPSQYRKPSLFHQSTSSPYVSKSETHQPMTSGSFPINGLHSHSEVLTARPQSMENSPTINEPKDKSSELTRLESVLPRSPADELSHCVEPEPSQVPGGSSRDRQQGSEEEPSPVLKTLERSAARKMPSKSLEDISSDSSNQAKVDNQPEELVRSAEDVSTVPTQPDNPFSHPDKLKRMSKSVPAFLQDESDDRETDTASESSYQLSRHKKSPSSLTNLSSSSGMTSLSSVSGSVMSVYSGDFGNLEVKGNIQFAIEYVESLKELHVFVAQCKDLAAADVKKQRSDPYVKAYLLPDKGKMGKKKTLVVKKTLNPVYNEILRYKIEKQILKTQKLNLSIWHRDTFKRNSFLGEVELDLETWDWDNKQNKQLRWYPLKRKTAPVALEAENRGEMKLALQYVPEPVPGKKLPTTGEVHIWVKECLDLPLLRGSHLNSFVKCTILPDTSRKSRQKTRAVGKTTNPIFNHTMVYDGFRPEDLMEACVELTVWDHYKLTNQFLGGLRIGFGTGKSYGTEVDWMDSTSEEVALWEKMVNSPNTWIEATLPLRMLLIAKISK
UniProt Q9HAC7: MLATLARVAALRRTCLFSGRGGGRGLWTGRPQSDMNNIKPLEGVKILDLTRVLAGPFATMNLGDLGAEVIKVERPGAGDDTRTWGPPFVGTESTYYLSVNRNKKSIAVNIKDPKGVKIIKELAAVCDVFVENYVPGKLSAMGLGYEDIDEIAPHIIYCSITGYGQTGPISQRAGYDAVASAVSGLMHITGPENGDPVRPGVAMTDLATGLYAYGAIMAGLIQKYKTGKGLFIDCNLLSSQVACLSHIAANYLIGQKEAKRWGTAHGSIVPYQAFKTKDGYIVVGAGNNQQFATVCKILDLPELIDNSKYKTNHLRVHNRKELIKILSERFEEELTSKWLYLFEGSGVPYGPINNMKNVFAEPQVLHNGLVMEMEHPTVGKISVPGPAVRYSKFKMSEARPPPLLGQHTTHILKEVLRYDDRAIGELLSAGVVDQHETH
UniProt Q6PIF2: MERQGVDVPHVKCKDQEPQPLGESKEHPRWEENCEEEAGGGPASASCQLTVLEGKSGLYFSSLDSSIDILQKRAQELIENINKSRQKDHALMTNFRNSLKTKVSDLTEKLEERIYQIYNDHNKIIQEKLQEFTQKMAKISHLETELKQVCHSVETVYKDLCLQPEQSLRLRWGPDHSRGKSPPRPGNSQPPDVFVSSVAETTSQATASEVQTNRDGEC
UniProt Q86TJ2: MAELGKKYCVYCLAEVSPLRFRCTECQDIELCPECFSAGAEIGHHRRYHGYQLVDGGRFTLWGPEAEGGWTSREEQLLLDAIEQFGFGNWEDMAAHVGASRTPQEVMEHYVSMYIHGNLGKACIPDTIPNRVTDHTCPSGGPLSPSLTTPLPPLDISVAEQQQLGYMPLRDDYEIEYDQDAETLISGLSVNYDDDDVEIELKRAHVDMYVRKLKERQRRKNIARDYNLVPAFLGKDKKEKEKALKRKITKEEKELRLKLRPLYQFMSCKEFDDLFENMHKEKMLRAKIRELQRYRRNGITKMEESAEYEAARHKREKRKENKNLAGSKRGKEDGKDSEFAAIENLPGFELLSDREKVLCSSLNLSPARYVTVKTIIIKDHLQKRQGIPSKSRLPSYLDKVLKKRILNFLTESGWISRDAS

pictilisib = compound: CS(=O)(=O)N1CCN(Cc2cc3nc(-c4cccc5[nH]ncc45)nc(N4CCOCC4)c3s2)CC1 [pictilisib]
Method in brief: as §1

crizotinib = compound: C[C@@H](Oc1cc(-c2cnn(C3CCNCC3)c2)cnc1N)c1c(Cl)ccc(F)c1Cl [crizotinib]
Method in brief: as §1

duvelisib = compound: C[C@H](Nc1ncnc2nc[nH]c12)c1cc2cccc(Cl)c2c(=O)n1-c1ccccc1 [duvelisib]
Method in brief: as §1

tozasertib = compound: Cc1cc(Nc2cc(N3CCN(C)CC3)nc(Sc3ccc(NC(=O)C4CC4)cc3)n2)n[nH]1 [tozasertib]
Method in brief: as §1

doramapimod = compound: Cc1ccc(-n2nc(C(C)(C)C)cc2NC(=O)Nc2ccc(OCCN3CCOCC3)c3ccccc23)cc1 [doramapimod]
Method in brief: as §1

bafetinib = compound: Cc1ccc(NC(=O)c2ccc(CN3CC[C@H](N(C)C)C3)c(C(F)(F)F)c2)cc1Nc1nccc(-c2cncnc2)n1 [bafetinib]
Method in brief: as §1

[1] = compound: C[C@H](C1=CC=C(C=C1)C(=O)NC2=C3C=CNC3=NC=C2)N
Method in brief: as §1

gandotinib = compound: Cc1cc(Nc2cc(CN3CCOCC3)c3nc(C)c(Cc4ccc(Cl)cc4F)n3n2)n[nH]1 [gandotinib]
Method in brief: as §1

[2] = compound: Cc1cccc(CC(=O)N2CCc3c2ccc(-c2cn(C)c4ncnc(N)c24)c3F)n1
Method in brief: as §1

Measured: log2 fold change

TAF4 (UniProt O00268)
inactive: lapatinib -0.036 | pictilisib 0.133 | crizotinib -0.005 | duvelisib 0.071 | tozasertib -0.052 | doramapimod 0.108 | bafetinib 0.024

SYNE1 (UniProt Q8NF91)
inactive: lapatinib -0.032 | pictilisib -0.058 | crizotinib -0.176 | [1] -0.083 | duvelisib -0.039 | gandotinib 0.359 | tozasertib -0.15 | doramapimod -0.001 | bafetinib 0.066 | [2] 0.212

SYNCRIP isoform 3 (UniProt O60506)
inactive: lapatinib -0.169 | pictilisib -0.094 | crizotinib -0.019 | [1] -0.032 | gandotinib -0.006 | tozasertib -0.017 | doramapimod -0.042 | bafetinib 0.051 | [2] 0.017

SUN2 isoform 2 (UniProt Q9UH99)
inactive: lapatinib -0.121 | pictilisib -0.035 | crizotinib 0.065 | [1] 0.071 | duvelisib -0.006 | gandotinib -0.19 | tozasertib 0.492 | doramapimod 0.466 | bafetinib -0.099 | [2] -0.14

SUPT20H isoform 3 (UniProt Q8NEM7)
inactive: lapatinib -0.297 | pictilisib 0.035 | crizotinib -0.246 | duvelisib -0.111 | tozasertib -0.005 | doramapimod -0.047 | bafetinib -0.002

SUDS3 (UniProt Q9H7L9)
inactive: lapatinib 0.008 | pictilisib 0.014 | crizotinib -0.035 | [1] -0.08 | duvelisib 0.017 | gandotinib 0.01 | tozasertib 0.001 | doramapimod -0.01 | bafetinib -0.059 | [2] 0.047

TAF15 (UniProt Q92804)
inactive: lapatinib 0.013 | pictilisib -0.016 | crizotinib 0.091 | [1] 0.049 | duvelisib 0.004 | gandotinib -0.015 | tozasertib -0.017 | doramapimod -0.063 | bafetinib 0.04 | [2] -0.058

STN1 (UniProt Q9H668)
inactive: lapatinib 0.128 | pictilisib -0.201 | crizotinib -0.068 | [1] -0.235 | gandotinib -0.212 | tozasertib -0.059 | doramapimod -0.101 | bafetinib -0.176 | [2] -0.028

SYNJ2BP (UniProt P57105)
inactive: lapatinib 0.007 | pictilisib -0.146 | crizotinib 0.015 | duvelisib -0.029 | tozasertib 0.127 | doramapimod -0.036 | bafetinib 0.057

Taken from the entries so far (two entries):
STN1 (UniProt Q9H668)
inactive: lapatinib 0.128 | pictilisib -0.201 | crizotinib -0.068 | [1] -0.235 | gandotinib -0.212 | tozasertib -0.059 | doramapimod -0.101 | bafetinib -0.176 | [2] -0.028

SYNJ2BP (UniProt P57105)
inactive: lapatinib 0.007 | pictilisib -0.146 | crizotinib 0.015 | duvelisib -0.029 | tozasertib 0.127 | doramapimod -0.036 | bafetinib 0.057

Following part:

TAB3 (UniProt Q8N5C8)
inactive: lapatinib -0.037 | pictilisib -0.062 | crizotinib 0.08 | [1] 0.021 | duvelisib 0.059 | gandotinib -0.081 | tozasertib -0.066 | doramapimod -0.113 | bafetinib 0.169 | [2] -0.038

SYMPK (UniProt Q92797)
inactive: lapatinib -0.029 | pictilisib -0.064 | crizotinib -0.03 | [1] 0.006 | duvelisib -0.011 | gandotinib -0.124 | tozasertib 0 | doramapimod -0.007 | bafetinib -0.053 | [2] 0.029

SUB1 (UniProt P53999)
inactive: lapatinib 0.003 | pictilisib 0.024 | crizotinib 0.055 | [1] -0.003 | duvelisib 0.004 | gandotinib 0.012 | tozasertib -0.001 | doramapimod -0.078 | bafetinib 0.001 | [2] 0.016

SUPT4H1 (UniProt P63272)
inactive: lapatinib -0.04 | pictilisib -0.06 | crizotinib -0.09 | [1] 0.047 | duvelisib 0.004 | gandotinib -0.014 | tozasertib -0.115 | doramapimod -0.05 | bafetinib 0.031 | [2] -0.043

TACO1 (UniProt Q9BSH4)
inactive: lapatinib -0.022 | pictilisib -0.027 | crizotinib 0.039 | [1] -0.113 | duvelisib 0.024 | gandotinib 0.042 | tozasertib 0.033 | doramapimod -0.099 | bafetinib -0.054 | [2] 0.05

STK24 (UniProt B4DR80)
inactive: lapatinib 0.006 | pictilisib 0 | crizotinib 0.044 | [1] 0.034 | duvelisib -0.016 | gandotinib 0.089 | tozasertib 0.001 | doramapimod -0.054 | bafetinib 0.004 | [2] 0

SYTL2 isoform 8 (UniProt Q9HCH5)
inactive: lapatinib -0.069 | pictilisib -0.094 | duvelisib 0.037 | bafetinib 0.188

STK16 (UniProt O75716)
inactive: lapatinib -0.156 | crizotinib -0.054 | duvelisib 0.057 | tozasertib 0.162 | doramapimod -0.322

SUGCT isoform 3 (UniProt Q9HAC7)
inactive: duvelisib 0.026 | tozasertib -0.134

SYCE2 (UniProt Q6PIF2)
inactive: crizotinib 0.077 | doramapimod -0.026

STRN3 (UniProt H0YJT2)
inactive: [1] -0.087 | duvelisib 0.16 | gandotinib 0.111 | tozasertib -0.149 | [2] 0.323

TADA2B (UniProt Q86TJ2)
inactive: crizotinib 0.082 | duvelisib 0.186 | doramapimod -0.137

SUSD1 isoform 2 (UniProt Q6UWL2)
inactive: crizotinib 0.038 | [1] -0.036 | duvelisib 0.15 | gandotinib -0.023 | tozasertib 0.037 | doramapimod 0.024 | [2] 0.06

STK10 (UniProt O94804)
inactive: pictilisib -0.046 | crizotinib -0.213 | duvelisib 0.028 | doramapimod -0.022 | bafetinib -0.184
